Test results taken from the supplement of paper PMC12067093, “Discovery and optimisation of a covalent ligand for TRIM25 and its application to targeted protein ubiquitination” (Chemical Science, 2025).
The other results are listed elsewhere or left out.

Chains of the proteins cited; added tags and fusions are not shown. Lines headed by an entry give the natural chain unless they say otherwise; changes in a name come on top.
UniProt O60664: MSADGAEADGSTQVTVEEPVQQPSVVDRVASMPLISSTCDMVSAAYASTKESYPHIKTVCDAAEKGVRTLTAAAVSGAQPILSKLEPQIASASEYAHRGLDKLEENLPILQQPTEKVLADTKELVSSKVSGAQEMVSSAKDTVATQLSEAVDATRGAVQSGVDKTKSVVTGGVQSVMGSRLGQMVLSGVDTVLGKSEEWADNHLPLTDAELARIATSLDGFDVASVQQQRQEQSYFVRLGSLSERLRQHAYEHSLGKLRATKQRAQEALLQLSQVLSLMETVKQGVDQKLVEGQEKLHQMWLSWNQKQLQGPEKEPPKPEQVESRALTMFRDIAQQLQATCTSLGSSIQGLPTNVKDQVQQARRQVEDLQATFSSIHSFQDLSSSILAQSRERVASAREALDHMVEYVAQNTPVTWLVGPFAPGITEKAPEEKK
UniProt P19174: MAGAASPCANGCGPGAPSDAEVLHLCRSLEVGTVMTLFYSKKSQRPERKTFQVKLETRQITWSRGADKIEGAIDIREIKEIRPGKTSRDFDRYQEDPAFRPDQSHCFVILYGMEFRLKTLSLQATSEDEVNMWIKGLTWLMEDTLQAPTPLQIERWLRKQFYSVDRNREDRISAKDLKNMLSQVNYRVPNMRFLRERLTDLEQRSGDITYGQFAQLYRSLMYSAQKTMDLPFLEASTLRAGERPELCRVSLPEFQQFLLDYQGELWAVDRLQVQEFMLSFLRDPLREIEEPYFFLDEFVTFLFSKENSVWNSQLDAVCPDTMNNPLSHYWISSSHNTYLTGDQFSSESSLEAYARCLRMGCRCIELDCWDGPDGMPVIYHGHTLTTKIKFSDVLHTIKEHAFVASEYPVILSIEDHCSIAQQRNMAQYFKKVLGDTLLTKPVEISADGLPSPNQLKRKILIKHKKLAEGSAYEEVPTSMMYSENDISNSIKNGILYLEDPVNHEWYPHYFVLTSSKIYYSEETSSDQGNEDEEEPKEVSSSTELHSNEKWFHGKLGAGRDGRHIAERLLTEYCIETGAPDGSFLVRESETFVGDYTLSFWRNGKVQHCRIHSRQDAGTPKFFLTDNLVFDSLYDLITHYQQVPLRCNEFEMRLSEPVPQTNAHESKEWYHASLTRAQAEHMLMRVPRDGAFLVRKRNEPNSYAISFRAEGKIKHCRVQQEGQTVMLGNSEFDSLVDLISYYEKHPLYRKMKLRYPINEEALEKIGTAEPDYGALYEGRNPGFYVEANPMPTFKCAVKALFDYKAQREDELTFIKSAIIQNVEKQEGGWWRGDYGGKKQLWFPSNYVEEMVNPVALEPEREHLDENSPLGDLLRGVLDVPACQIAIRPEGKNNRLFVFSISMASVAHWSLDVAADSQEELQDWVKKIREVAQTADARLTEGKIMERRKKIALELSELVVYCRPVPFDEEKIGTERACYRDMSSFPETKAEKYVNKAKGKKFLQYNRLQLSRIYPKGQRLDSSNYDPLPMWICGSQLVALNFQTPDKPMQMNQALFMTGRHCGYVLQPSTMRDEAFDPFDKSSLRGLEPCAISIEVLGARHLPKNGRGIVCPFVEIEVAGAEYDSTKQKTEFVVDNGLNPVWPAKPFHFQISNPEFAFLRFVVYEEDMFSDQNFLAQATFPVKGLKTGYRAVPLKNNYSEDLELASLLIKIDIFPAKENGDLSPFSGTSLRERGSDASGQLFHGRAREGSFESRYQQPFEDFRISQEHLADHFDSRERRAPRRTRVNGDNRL
UniProt O75439: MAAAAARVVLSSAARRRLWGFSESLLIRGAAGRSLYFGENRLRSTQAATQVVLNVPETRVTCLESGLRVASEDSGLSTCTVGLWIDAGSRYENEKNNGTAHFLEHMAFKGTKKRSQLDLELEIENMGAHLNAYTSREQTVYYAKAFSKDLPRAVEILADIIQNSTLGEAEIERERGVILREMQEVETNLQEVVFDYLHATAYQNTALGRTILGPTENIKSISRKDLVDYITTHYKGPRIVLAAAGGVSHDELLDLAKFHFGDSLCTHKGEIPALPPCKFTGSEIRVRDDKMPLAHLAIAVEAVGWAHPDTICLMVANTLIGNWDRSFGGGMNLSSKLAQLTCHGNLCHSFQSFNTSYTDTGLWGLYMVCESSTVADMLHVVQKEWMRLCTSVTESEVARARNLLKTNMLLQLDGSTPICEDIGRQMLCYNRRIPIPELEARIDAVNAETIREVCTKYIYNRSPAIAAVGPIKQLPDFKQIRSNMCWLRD
UniProt P16885: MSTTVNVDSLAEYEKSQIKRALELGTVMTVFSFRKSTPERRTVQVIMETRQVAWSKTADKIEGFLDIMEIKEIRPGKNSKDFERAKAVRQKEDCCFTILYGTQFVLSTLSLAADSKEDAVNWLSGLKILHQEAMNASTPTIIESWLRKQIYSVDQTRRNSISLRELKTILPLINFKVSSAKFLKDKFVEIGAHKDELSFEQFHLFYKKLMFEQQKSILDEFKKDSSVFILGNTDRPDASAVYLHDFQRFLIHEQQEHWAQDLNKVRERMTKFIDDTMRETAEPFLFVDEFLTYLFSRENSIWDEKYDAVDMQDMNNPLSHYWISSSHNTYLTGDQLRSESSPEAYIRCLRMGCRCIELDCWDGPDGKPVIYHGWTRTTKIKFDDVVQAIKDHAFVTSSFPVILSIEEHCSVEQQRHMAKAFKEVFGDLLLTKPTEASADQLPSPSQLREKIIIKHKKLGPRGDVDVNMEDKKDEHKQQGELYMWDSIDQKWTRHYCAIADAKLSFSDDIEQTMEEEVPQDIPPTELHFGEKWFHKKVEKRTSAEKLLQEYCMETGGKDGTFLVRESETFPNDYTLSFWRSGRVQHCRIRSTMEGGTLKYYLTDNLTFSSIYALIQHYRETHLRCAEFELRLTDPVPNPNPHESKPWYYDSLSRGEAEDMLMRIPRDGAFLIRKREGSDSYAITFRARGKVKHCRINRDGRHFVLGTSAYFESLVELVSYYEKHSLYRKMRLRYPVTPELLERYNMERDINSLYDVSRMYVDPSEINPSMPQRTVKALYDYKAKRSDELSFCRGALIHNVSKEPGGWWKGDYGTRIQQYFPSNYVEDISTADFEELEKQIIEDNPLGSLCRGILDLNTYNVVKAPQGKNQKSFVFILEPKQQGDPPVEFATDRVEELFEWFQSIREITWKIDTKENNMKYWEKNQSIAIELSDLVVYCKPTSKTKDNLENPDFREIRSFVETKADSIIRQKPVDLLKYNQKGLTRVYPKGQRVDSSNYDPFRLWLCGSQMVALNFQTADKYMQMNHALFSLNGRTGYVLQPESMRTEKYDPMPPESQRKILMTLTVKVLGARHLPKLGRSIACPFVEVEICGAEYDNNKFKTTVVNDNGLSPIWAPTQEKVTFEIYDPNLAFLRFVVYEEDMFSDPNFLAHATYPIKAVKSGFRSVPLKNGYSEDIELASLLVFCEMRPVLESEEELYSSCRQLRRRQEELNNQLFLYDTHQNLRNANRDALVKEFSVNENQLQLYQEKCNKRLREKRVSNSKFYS
UniProt P00491: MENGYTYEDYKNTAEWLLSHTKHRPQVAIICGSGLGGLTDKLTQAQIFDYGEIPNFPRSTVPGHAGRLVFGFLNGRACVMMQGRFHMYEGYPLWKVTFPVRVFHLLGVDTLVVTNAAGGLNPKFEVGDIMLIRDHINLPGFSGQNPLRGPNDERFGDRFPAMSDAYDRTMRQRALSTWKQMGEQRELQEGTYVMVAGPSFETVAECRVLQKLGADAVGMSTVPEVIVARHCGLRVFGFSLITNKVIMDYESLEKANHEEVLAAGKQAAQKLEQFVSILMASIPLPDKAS
UniProt Q8IY17: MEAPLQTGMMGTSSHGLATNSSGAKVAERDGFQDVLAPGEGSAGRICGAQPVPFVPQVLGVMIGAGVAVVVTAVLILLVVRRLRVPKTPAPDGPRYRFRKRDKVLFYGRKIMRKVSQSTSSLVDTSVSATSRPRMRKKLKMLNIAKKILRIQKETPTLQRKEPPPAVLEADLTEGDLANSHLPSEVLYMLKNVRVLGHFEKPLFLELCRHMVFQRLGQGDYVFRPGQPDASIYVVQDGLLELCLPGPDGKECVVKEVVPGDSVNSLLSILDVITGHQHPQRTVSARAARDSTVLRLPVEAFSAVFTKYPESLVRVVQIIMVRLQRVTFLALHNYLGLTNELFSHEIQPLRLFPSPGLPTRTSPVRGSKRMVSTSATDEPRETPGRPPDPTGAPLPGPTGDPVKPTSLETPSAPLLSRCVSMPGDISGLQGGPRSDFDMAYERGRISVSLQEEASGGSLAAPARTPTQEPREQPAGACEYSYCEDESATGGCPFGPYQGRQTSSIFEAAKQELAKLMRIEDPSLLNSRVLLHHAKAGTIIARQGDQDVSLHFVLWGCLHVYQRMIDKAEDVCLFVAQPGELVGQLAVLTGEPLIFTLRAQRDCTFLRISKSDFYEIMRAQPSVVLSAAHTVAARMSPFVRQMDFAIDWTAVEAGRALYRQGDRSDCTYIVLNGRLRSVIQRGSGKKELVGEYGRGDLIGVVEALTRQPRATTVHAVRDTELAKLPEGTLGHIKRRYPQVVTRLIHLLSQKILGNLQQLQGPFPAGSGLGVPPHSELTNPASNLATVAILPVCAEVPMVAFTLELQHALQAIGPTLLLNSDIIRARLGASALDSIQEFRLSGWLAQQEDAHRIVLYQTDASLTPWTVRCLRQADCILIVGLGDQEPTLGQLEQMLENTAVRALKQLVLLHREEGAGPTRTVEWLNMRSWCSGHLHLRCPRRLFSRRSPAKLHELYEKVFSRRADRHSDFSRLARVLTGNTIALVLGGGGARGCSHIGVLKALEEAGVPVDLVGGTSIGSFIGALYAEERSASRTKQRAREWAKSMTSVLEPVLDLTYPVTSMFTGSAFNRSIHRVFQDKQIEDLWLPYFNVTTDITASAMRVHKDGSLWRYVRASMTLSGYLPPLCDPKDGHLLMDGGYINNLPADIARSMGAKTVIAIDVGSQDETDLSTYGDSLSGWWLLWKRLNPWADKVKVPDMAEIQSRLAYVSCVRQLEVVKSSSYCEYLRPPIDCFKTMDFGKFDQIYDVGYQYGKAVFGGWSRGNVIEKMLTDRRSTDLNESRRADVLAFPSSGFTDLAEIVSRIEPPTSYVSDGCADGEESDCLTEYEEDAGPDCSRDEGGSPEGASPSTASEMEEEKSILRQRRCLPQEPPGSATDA
UniProt Q6UX71: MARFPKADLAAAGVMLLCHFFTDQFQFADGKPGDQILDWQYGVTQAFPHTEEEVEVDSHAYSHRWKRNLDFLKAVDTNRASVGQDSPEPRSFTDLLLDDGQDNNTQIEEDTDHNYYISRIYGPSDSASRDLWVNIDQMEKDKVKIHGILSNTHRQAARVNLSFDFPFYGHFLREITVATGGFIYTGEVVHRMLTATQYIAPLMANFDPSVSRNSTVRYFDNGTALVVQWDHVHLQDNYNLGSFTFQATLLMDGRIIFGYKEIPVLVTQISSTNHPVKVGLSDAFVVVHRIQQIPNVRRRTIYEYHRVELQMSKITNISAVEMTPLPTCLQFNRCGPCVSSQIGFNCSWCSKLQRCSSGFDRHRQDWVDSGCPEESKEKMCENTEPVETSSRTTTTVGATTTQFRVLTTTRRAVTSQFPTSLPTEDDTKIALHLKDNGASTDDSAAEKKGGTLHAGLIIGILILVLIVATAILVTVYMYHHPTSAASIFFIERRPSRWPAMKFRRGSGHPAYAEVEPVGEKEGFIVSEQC
UniProt Q9HB20: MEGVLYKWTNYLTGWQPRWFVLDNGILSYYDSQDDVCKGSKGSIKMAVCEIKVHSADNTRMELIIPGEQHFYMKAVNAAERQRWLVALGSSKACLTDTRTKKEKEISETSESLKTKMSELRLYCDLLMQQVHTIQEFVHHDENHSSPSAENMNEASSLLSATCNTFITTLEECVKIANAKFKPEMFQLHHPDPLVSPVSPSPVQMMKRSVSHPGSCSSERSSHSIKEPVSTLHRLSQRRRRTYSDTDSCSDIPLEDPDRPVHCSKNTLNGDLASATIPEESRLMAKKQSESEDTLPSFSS
UniProt Q10713: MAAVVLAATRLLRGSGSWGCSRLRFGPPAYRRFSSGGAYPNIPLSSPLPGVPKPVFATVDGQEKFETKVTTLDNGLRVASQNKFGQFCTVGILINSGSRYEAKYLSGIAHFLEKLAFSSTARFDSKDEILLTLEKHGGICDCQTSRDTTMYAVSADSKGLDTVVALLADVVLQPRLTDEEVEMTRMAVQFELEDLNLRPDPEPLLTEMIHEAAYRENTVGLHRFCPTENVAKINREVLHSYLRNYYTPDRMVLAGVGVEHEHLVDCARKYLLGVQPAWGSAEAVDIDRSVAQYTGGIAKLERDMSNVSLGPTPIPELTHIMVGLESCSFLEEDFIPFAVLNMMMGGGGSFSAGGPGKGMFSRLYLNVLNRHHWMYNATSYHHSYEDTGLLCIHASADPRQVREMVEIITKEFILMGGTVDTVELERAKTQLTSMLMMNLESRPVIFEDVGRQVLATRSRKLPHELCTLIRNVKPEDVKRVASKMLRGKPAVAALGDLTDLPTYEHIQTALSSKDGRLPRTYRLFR

Compound: Cc1cc(ccc1-c1ccccc1)C(=O)N1CCCN(CC1)C(=O)CCl [compound 10]
Experiment: probe-labelled cysteine peptide fold change vs DMSO (competition) (log2 fold change); higher = less target engagement (more negative = stronger competition)
Details: THP-1, incubation time: 4 h
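Note: competitive profiling in live THP-1 cells: cysteine peptides tagged with an iodoacetamide desthiobiotin (IA-DTB) probe, intensity after compound treatment relative to DMSO-treated cells.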

| Target | probe-labelled cysteine peptide fold change (10 µM) | probe-labelled cysteine peptide fold change (50 µM) |
| --- | --- | --- |
| PLEKHF1_Q96S99_129_QEWISHIEECVR (UniProt Q96S99) | 0.271 | 0.463 |
| PLEKHF2_Q9H8W4_219_ICDFCYDLLSAGDMATCQPAR (UniProt Q9H8W4) | -0.498 | -0.228 |
| PLEC_Q15149_1136_LQLEACETR (UniProt Q15149) | -0.0929 | -0.0925 |
| PIKFYVE_Q9Y2I7_421_WLDCVSHHDQLFR (UniProt Q9Y2I7) | 0.115 | -0.111 |
| PLEC_Q15149_3110_LCFEGLR (UniProt Q15149) | -0.0802 | 0.172 |
| PMM2_O15305_136_SCSQEER (UniProt O15305) | 0.442 | 0.918 |
| PIKFYVE_Q9Y2I7_831_TLMFFEGCPQHLGCTIK (UniProt Q9Y2I7) | 0.000926 | -0.183 |
| PLD4_Q96BZ4_313_FQPFHGLFDGVPTTAYFSASPPALCPQGR (UniProt Q96BZ4) | 0.117 | -0.188 |
| PNKD_Q8N490_347_THCLALQEALGPGPGPTGDDDYSR (UniProt Q8N490) | -0.352 | -0.252 |
| PLIN3_O60664_341_DIAQQLQATCTSLGSSIQGLPTNVK (UniProt O60664) | 0.208 | -0.0769 |
| PLXNB2_O15031_486_DSQDPYCGWCVVEGR (UniProt O15031) | -0.094 | 0.024 |
| PLCG1_P19174_960_IALELSELVVYCR (UniProt P19174) | 0.248 | 0.143 |
| PNPT1_Q8TCS8_372_NVSCEVDMFK (UniProt Q8TCS8) | 0.0679 | 0.00758 |
| PLOD2_O00469_576_ACDELVEEMEHYGK (UniProt O00469) | -0.195 | 0.0423 |
| PIKFYVE_Q9Y2I7_1677_EPSSIIAFALSCK (UniProt Q9Y2I7) | -0.0688 | -0.11 |
| PLBD2_Q8NHP8_244_IKPSLGSGSCSALIK (UniProt Q8NHP8) | -0.294 | -0.376 |
| PITPNB_P48739_13_VVLPCSVQEYQVGQLYSVAEASK (UniProt P48739) | -0.0113 | 0.103 |
| PMPCB_O75439_265_FHFGDSLCTHK (UniProt O75439) | -0.178 | -0.289 |
| PLEKHA2_Q9HB19_253_THECLVK (UniProt Q9HB19) | 0.0157 | -0.28 |
| PLAA_Q9Y263_143_CMMTLQGHTAAVWAVK (UniProt Q9Y263) | -0.0439 | 0.155 |
| PISD_Q9UG56_300_ELFCHNER (UniProt Q9UG56) | -0.0321 | -0.201 |
| PKN1_Q16512_317_LAGPFPATHYSTLCK (UniProt Q16512) | 0.0998 | -0.443 |

| Target | probe-labelled cysteine peptide fold change (10 µM) | probe-labelled cysteine peptide fold change (50 µM) |
| --- | --- | --- |
| PLEC_Q15149_4071_FLEGTSCIAGVFVDATK (UniProt Q15149) | 0.12 | 0.129 |
| PLCG2_P16885_791_SDELSFCR (UniProt P16885) | -0.0321 | -0.0713 |
| PLXNB2_O15031_1504+1506_GQPCSCWPRPDSVVLEWRPGSTAQILSDLDLTSQR (UniProt O15031) | -0.0809 | -0.762 |
| PLK1_P53350_405_QEEAEDPACIPIFWVSK (UniProt P53350) | 0.00966 | 0.0835 |
| PLCG1_P19174_247_AGERPELCR (UniProt P19174) | -0.173 | -0.0224 |
| PLOD3_O60568_698_FLRYDCVISSPR (UniProt O60568) | 0.103 | -0.168 |
| PNP_P00491_78_ACVMMQGR (UniProt P00491) | -0.061 | 0.171 |
| PLEK_P08567_102_CIEGGQK (UniProt P08567) | -0.12 | -0.00998 |
| POC1A_Q8NBT0_66_DAVTCVNFSPSGHLLASGSR (UniProt Q8NBT0) | -0.154 | -0.278 |
| PLCG2_P16885_791_RSDELSFCR (UniProt P16885) | -0.13 | 0.0319 |
| PLG_P00747_398_CQSWSSMTPHR (UniProt P00747) | -0.352 | -0.442 |
| PMS1_P54277_102_GEALGSICCIAEVLITTR (UniProt P54277) | 0.151 | -0.235 |
| PLXNB2_O15031_948_FGAQLQCVTGPQATR (UniProt O15031) | -0.153 | 0.18 |
| PLEC_Q15149_3295_SHRVPLDVACAR (UniProt Q15149) | -0.167 | -0.623 |
| PNPLA6_Q8IY17_418_CVSMPGDISGLQGGPR (UniProt Q8IY17) | -0.22 | -0.238 |
| PLXDC2_Q6UX71_529_EGFIVSEQC (UniProt Q6UX71) | -0.169 | 0.0727 |
| PIK3R1_P27986_146_GLECSTLYR (UniProt P27986) | -0.0643 | 0.0863 |
| PLCG2_P16885_496_HYCAIADAK (UniProt P16885) | -0.0625 | 0.0844 |
| PLEKHA3_Q9HB20_216_SVSHPGSCSSER (UniProt Q9HB20) | -0.0736 | -0.638 |
| PLCL2_Q9UPR0_1095_QIHFAAVSCGLNKPGTENADVQKPR (UniProt Q9UPR0) | -0.0777 | -0.356 |
| PLPP6_Q8IY26_55_ATAVDPTCAR (UniProt Q8IY26) | -0.366 | -0.581 |
| PLCG1_P19174_646_CNEFEMR (UniProt P19174) | -0.125 | -0.465 |

Some of the entries above, set out differently.
Target | probe-labelled cysteine peptide fold change (10 µM) | probe-labelled cysteine peptide fold change (50 µM)
PNPLA6_Q8IY17_418_CVSMPGDISGLQGGPR (UniProt Q8IY17) | -0.22 | -0.238
PLXDC2_Q6UX71_529_EGFIVSEQC (UniProt Q6UX71) | -0.169 | 0.0727
PIK3R1_P27986_146_GLECSTLYR (UniProt P27986) | -0.0643 | 0.0863
PLCG2_P16885_496_HYCAIADAK (UniProt P16885) | -0.0625 | 0.0844
PLEKHA3_Q9HB20_216_SVSHPGSCSSER (UniProt Q9HB20) | -0.0736 | -0.638

The list continues.

| Target | probe-labelled cysteine peptide fold change (10 µM) | probe-labelled cysteine peptide fold change (50 µM) |
| --- | --- | --- |
| PLEC_Q15149_3821_EALEAESAWCYLYGTGSVAGVYLPGSR (UniProt Q15149) | -0.046 | 0.134 |
| PKM_P14618_152_CDENILWLDYK (UniProt P14618) | 0.136 | 0.167 |
| PMPCA_Q10713_466_LPHELCTLIR (UniProt Q10713) | -0.174 | -0.302 |
| PNP_P00491_206_ELQEGTYVMVAGPSFETVAECR (UniProt P00491) | 0.144 | 0.0981 |
| PLOD1_Q02809_680_VGVDYEGGGCR (UniProt Q02809) | -0.225 | 0.125 |
| PNO1_Q9NRX1_64_RPVFPPLCGDGLLSGK (UniProt Q9NRX1) | -0.251 | -0.122 |
| PLEC_Q15149_3295_VPLDVACAR (UniProt Q15149) | -0.295 | -0.415 |
| PLOD1_Q02809_369_NMGADLCR (UniProt Q02809) | 0.108 | -0.0906 |
| PITHD1_Q9GZP4_42_LQCLNESR (UniProt Q9GZP4) | -0.143 | -0.0881 |
| PML_P29590_204_TPTLTSIYCR (UniProt P29590) | -0.0612 | -0.396 |
| PNPT1_Q8TCS8_242_SQIVMLEASAENILQQDFCHAIK (UniProt Q8TCS8) | 0.00909 | 0.0201 |
| PMPCB_O75439_277_GEIPALPPCK (UniProt O75439) | 0.153 | 0.694 |
| PLEC_Q15149_530_SEFERLECLQR (UniProt Q15149) | -0.204 | -0.637 |
| PM20D2_Q8IYS1_14_MRPGGERPVEGGACNGR (UniProt Q8IYS1) | -0.16 | -0.608 |
| PLD3_Q8IV08_487_DWDSPYSHDLDTSADSVGNACR (UniProt Q8IV08) | -0.23 | -0.151 |
| PLIN3_O60664_60_TVCDAAEK (UniProt O60664) | 0.0803 | -0.266 |
| PLEKHB2_Q96CS7_75+81_DCMLQIVCR (UniProt Q96CS7) | 0.107 | 0.181 |
| PKM_P14618-2_423_CLAAALIVLTESGR (UniProt P14618) | 0.128 | 0.0978 |
| PLAA_Q9Y263_631_HPSVNENFCNEK (UniProt Q9Y263) | -0.0346 | -0.0185 |
| PLXNC1_O60486_1217_IPENESADVCR (UniProt O60486) | 0.0771 | 0.162 |
| PLS3_P13797_167_AVGDGIVLCK (UniProt P13797) | 0.0926 | -0.0651 |
| PKN2_Q16513_394_TDDLSNDVCAVLK (UniProt Q16513) | -0.165 | 0.0498 |

| Target | probe-labelled cysteine peptide fold change (10 µM) | probe-labelled cysteine peptide fold change (50 µM) |
| --- | --- | --- |
| PIK3R4_Q99570_759_NGSLPDCPPPEDPAIAQLLK (UniProt Q99570) | -0.172 | -0.018 |
| PLCG1_P19174_106_YQEDPAFRPDQSHCFVILYGMEFR (UniProt P19174) | 0.19 | 0.263 |
| PIK3CG_P48736_817_CADPTALSNETIGIIFK (UniProt P48736) | 0.0584 | 0.0673 |
| PLAUR_Q03405_144_SPEEQCLDVVTHWIQEGEEGRPK (UniProt Q03405) | 0.0417 | -0.0586 |
| PLA2G4A_P47712_634_DCPTIIHFVLANINFR (UniProt P47712) | -0.152 | -0.426 |
| PLIN2_Q99541_302_SIGYDDTDESHCAEHIESR (UniProt Q99541) | -0.00068 | -0.468 |
| PIK3R4_Q99570_1180_FQLPISSHCHPSR (UniProt Q99570) | 0.15 | 0.129 |
| PLXNB2_O15031_1149_TLTETDLYCEPPEVQPPPK (UniProt O15031) | -0.174 | -0.00622 |
| PLCB2_Q00722_188_RVEAALSACHLPK (UniProt Q00722) | -0.0468 | 0.0994 |
| PLCG2_P16885_360_CIELDCWDGPDGKPVIYHGWTR (UniProt P16885) | -0.166 | -0.0385 |
| PLPBP_O94903_261_CAADVK (UniProt O94903) | -0.275 | -0.287 |
| PLD1_Q13393_876_AELGNQWINYISFCGLR (UniProt Q13393) | 0.149 | 0.145 |
| PIP4P1_Q86T03_104_CGVCNEATPIK (UniProt Q86T03) | 0.0184 | -0.171 |
| PMS1_P54277_868_EVYECRPR (UniProt P54277) | -0.0785 | 0.142 |
| PLEC_Q15149_545_LQMEAGLCEEQLNQADALLQSDVR (UniProt Q15149) | -0.0261 | 0.0475 |
| PLA2G15_Q8NCC3_65_LDKPTVVHYLCSK (UniProt Q8NCC3) | -0.0203 | 0.549 |
| PMPCA_Q10713_88_FGQFCTVGILINSGSR (UniProt Q10713) | 0.0613 | 0.0304 |
| PIK3R4_Q99570_899_SESSAGICVPLSTSSQVPEVTTVQNK (UniProt Q99570) | -0.231 | -0.179 |
| PLSCR1_O15162_254_SLDEQCVVGK (UniProt O15162) | 0.0443 | 0.0858 |
| PKM_P14618_424_CCSGAIIVLTK (UniProt P14618) | -0.194 | -0.585 |
